Experimental data as given in PMC3205050.

By UniProt entry, the sequences of proteins in these tests, tags left out. Where a name states a change or a piece, a line headed by the entry shows the natural chain unless it says otherwise.
UniProt P84025: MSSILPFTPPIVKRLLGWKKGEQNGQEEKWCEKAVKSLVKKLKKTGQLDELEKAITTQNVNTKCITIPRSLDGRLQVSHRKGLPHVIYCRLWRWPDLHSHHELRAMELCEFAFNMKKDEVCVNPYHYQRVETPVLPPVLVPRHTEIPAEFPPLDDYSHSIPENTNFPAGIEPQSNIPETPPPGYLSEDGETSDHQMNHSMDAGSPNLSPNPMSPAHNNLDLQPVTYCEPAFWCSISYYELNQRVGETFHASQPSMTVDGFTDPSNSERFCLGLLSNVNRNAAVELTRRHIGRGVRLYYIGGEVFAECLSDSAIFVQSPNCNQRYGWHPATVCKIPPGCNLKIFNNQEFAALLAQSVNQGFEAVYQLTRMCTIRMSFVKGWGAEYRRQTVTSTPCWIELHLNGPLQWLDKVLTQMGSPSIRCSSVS

Tests used:
[1] = target: pSmad3 (endogenous, nuclear extract of TGF-b1-treated VSMC) (Rattus norvegicus (rat VSMC)) (UniProt P84025); test: EMSA supershift (anti-pSmad3 abrogates band); details: TGF-b1-treated cells, band also lost on Smad3 knockdown; EMSA: LightShift kit (Pierce), antibody 60 min at 4 C then probe 20 min; protein in an extract; label: 5'-biotin
[2] = target: pSmad3 (endogenous, nuclear extract of TGF-b1-treated VSMC) (Rattus norvegicus (rat VSMC)) (UniProt P84025); test: southwestern blot; details: Southwestern: 30 mM HEPES pH 7.6, 50 mM KCl, 10 mM MgCl2, 0.1 mM EDTA, 1 mM DTT, 5% BLOTTO, 0.1% BSA, 1 mg/ml poly(dI-dC), 4 C overnight, protein in an extract, label: 5'-biotin
[3] = test system: recombinant Smad4; test: southwestern blot; details: PARP1/NAD+/active DNA, poly(ADP-ribosyl)ation increased binding, 3AB inhibited, 10 mM Mg2+; Southwestern: 30 mM HEPES pH 7.6, 50 mM KCl, 10 mM MgCl2, 0.1 mM EDTA, 1 mM DTT, 5% BLOTTO, 0.1% BSA, 1 mg/ml poly(dI-dC), 4 C overnight; recombinant protein; label: 5'-biotin
[4] = target: T1, Smad4 (endogenous, nuclear extract) (Rattus norvegicus (rat VSMC)) (UniProt O70437); test: southwestern blot; details: 10 mM Mg2+, Southwestern: 30 mM HEPES pH 7.6, 50 mM KCl, 10 mM MgCl2, 0.1 mM EDTA, 1 mM DTT, 5% BLOTTO, 0.1% BSA, 1 mg/ml poly(dI-dC), 4 C overnight, protein in an extract, label: 5'-biotin
T1 sequence (looked up, limits assumed): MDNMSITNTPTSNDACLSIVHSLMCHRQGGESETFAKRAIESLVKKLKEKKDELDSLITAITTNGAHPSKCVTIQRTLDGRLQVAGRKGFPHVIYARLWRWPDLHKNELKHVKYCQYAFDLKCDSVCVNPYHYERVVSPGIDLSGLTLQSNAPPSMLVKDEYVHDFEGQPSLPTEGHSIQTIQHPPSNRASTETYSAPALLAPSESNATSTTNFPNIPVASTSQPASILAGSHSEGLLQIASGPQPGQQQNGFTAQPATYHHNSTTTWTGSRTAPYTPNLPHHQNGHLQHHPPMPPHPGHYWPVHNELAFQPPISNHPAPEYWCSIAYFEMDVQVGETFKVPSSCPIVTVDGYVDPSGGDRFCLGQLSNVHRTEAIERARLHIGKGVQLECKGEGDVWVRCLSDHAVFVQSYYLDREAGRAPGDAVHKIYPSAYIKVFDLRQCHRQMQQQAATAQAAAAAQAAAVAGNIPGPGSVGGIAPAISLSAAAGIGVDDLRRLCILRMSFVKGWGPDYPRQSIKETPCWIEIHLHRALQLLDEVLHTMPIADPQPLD

[5] = test system: recombinant pSmad3; test: southwestern blot; details: PARP1/NAD+/active DNA, poly(ADP-ribosyl)ation increased binding, 3AB inhibited, 10 mM Mg2+; Southwestern: 30 mM HEPES pH 7.6, 50 mM KCl, 10 mM MgCl2, 0.1 mM EDTA, 1 mM DTT, 5% BLOTTO, 0.1% BSA, 1 mg/ml poly(dI-dC), 4 C overnight; recombinant protein; label: 5'-biotin

“AGTATGTCTAGACTGA (double strand) [SBE consensus]”: binds [1]; binds ([2]; TGF-b1-treated cells, 10 mM Mg2+, band lost on Smad3 siRNA); binds more weakly ([2]; TGF-b1 plus PARP1 siRNA, 3AB or PJ34, 10 mM Mg2+). “AGTATGTCTAGACTGA (double strand) [SBE consensus]”: binds ([2]; extract of non-treated cells (phosphorylation not stated) with NAD+/active DNA, increased, inhibited by 3AB, 10 mM Mg2+); binds [3]; binds ([4]; NAD+/active DNA (text: with PARP1), increased, inhibited by 3AB). “AGTATGTCTAGACTGA (double strand) [SBE consensus]”: binds ([4]; TGF-b1-treated cells, band lost on Smad4 siRNA); binds [5].

The exact form of at least one protein or probe is not confirmed. For some assays here: At least one result comes from cells or an extract, where the contact may be indirect. For some assays here: A weaker result is weaker than the reference pair of the same experiment. For some assays here: Where a protein sequence is shown, tags need not be part of it. For some assays here: At least one verdict was read from the data and is not stated in words by the source.
